# Results from PubChem BioAssay AID540256 (National Center for Advancing Translational Sciences (NCATS), 2011).
# About 3,700 (1.2%) of roughly 300,000 compounds were called active. This list was built around the results that the source calls inconclusive (neither active nor inactive); the mix of calls is not that of the screen. Calls come from the whole dose curve; tested in HEK293 cells. Potencies beside an inconclusive call are fits to weak or partial responses and may not hold up.
# Assay: qHTS for Inhibitors of binding or entry into cells for Lassa Virus; note: nearly all actives have a fitted effect of over 50% in size
# Settings: Lassa virus pseudotype entry inhibition, cell reporter; activity change, negative = inhibition: at 37.9 µM (top of the series) unless noted
# % is set by controls: 0 for no effect and ±100 for the full control effect; potency is the fitted concentration of half-maximal effect.
SMILES,Potency,"activity change, negative = inhibition"
COc1cccc(/C=N/NC(=O)CN2CC(c3ccccc3)CC2=O)c1O (centres undefined),"inconclusive: 6.51 µM [inhibitor, partial curve]",
Cc1ccc(C2CC(c3ccccc3)=NN2C(=S)Nc2ccccc2)o1 (centres undefined),active: 3.98 µM,
CCOC(=O)CSc1nc2c(sc(=S)n2-c2ccccc2OC)c(=O)n1-c1ccccc1OC,,inactive: -27.7%
CCN(CC)C(=O)c1sc(NC(=O)c2cc(-c3ccc(C)s3)nc3ccccc23)c(C(=O)OC)c1C,"inconclusive: 35.5 µM [inhibitor, single point]",
CCOc1cc2c(cc1OCC)C(c1ccc(OC)c(OC)c1)N(c1ccc(C(=O)O)cc1)C(=O)C2 (centres undefined),"inconclusive: 1.12 µM [inhibitor, single point]",
CC1(C)CN(c2cccc(-c3ccnc4ncnn34)c2)C1=O,"inconclusive: 35.5 µM [activator, partial curve, poor fit]",
CS(=O)(=O)c1ccc2nc(NC(=O)CCS(=O)(=O)c3ccccc3)sc2c1,"inconclusive: 31.6 µM [inhibitor, partial curve, poor fit]",
COc1ccccc1N(C)S(=O)(=O)c1ccc(C(=O)NC(C)(C)C)cc1,"inconclusive: 2.82 µM [inhibitor, partial curve, poor fit]",
Cc1ccc2cc(CN(CCN(C)C)C(=O)Nc3ccc(Cl)cc3)c(=O)[nH]c2c1,"inconclusive: 35.5 µM [inhibitor, single point]",
CCCN1CCN(CC(=O)Nc2nc3ccccc3s2)CC1,,inactive: 23.5% [at 46.1 µM]
COc1cc(Nc2ncc(-c3ccccc3)o2)cc(OC)c1,"inconclusive: 31.5 µM [activator, partial curve, poor fit]",
O=C(Nc1cccc(-c2nnc(-c3ccccc3)o2)c1)c1ccc(Br)o1,"inconclusive: 10.3 µM [inhibitor, partial curve]",
Cc1ccc(Oc2ccc(OCC(=O)NC(CC(C)C)C(=O)O)cc2)cc1 (centres undefined),,inactive: -0.0166%
CCCCN(C(=O)NC(=O)Nc1cccc(C)c1C)S(C)(=O)=O,"inconclusive: 7.3 µM [inhibitor, partial curve]",
O=C(NCc1ccccc1)c1nc2ccccc2s1,,inactive: -21.2%
COc1ccc([N+](=O)[O-])cc1NC(=O)c1ccc(N(Cc2ccccc2Cl)S(C)(=O)=O)cc1,"inconclusive: 5.01 µM [inhibitor, partial curve, poor fit]",
Cc1ccccc1CN1CCc2c(OCC(=O)N3CCCc4ccccc43)cccc2C1=O,"inconclusive: 12.6 µM [inhibitor, partial curve, poor fit]",

# Structural class: those above with two or more sulfur atoms.
SMILES,Potency,"activity change, negative = inhibition"
CCOC(=O)CSc1nc2c(sc(=S)n2-c2ccccc2OC)c(=O)n1-c1ccccc1OC,,inactive: -27.7%
CCN(CC)C(=O)c1sc(NC(=O)c2cc(-c3ccc(C)s3)nc3ccccc23)c(C(=O)OC)c1C,"inconclusive: 35.5 µM [inhibitor, single point]",
CS(=O)(=O)c1ccc2nc(NC(=O)CCS(=O)(=O)c3ccccc3)sc2c1,"inconclusive: 31.6 µM [inhibitor, partial curve, poor fit]",

# (next part)

SMILES,Potency,"activity change, negative = inhibition"
Cc1ccc(C)c(N2CCN(C(=O)CCn3c(=O)c4cccn4c4cccnc43)CC2)c1,,inactive: -12% [at 46.1 µM]
COc1ccccc1CNC(=O)Cn1c(=O)oc2cc(S(=O)(=O)NCc3ccccc3)ccc21,"inconclusive: 12.6 µM [inhibitor, single point]",
CCOC(=O)Cn1nc(NC(=O)c2ccc(C(=O)OC)cc2)cc1C,,inactive: 4.05%
COC(=O)N/N=C(\C)c1ccc(C)c([N+](=O)[O-])c1,"inconclusive: 6.31 µM [activator, partial curve]",
Cc1ccc(NC(=O)c2sc3nc[nH]c(=O)c3c2C)cc1Cl,"inconclusive: 2.51 µM [activator, partial curve, poor fit]",
Cc1ccc2nc(-c3cc(-c4ccccc4)no3)cn2c1,active: 0.891 µM,
Cc1ccc(C)c(CSCC(=O)NCc2cccs2)c1,,inactive: -10.1% [at 46.1 µM]
CC(C)Cn1c(N)c(C(=O)COC(=O)c2ccc3ccccc3n2)c(=O)n(C)c1=O,,inactive: 15.2%
CC1=NCCN1CCNC(=O)Nc1cc(C)cc(C)c1,,inactive: 0.0431% [at 46.1 µM]
Cc1cc(C)c(C(N)=O)c(NC(=O)Nc2ccccc2Cl)n1,"inconclusive: 29.1 µM [activator, single point]",
CCn1cc(C(=O)NCCc2ccc(OC)c(OC)c2)c(=O)c2cc(S(=O)(=O)N3CCC(C)CC3)ccc21,,inactive: -24% [at 46.1 µM]
O=C(Nc1nc(-c2ccc(F)cc2)cs1)c1cccc(N2C(=O)CCC2=O)c1,"inconclusive: 35.5 µM [inhibitor, single point]",
Cc1ccc(/C=c2/sc3n(c2=O)CCCN=3)o1,,inactive: 18.1%
Cc1ccc(OC(=O)CSc2nnc(-c3cccs3)o2)cc1C,,inactive: 2.1% [at 46.1 µM]
CCN(CC)S(=O)(=O)c1ccc2c(c1)nc(SC(C)C(N)=O)n2-c1ccc(OC)cc1 (centres undefined),"inconclusive: 12.6 µM [inhibitor, partial curve, poor fit]",
Cc1ccc(S(=O)(=O)N2CCOC2CNC(=O)C(=O)NCc2ccc3c(c2)OCO3)cc1 (centres undefined),"inconclusive: 11.2 µM [inhibitor, partial curve, poor fit]",
Cc1ccc(S(=O)(=O)Nc2ccc(-c3csc(-c4ccccc4)n3)cc2)cc1,"inconclusive: 14.1 µM [inhibitor, single point]",
